In doi:10.1101/2024.12.23.630085, “Accurate sequence-to-affinity models for SH2 domains from multi-round peptide binding assays coupled with free-energy regression” (bioRxiv, 2025):
These are yes or no findings as the source states them, for the method shown. Some binding calls cover weakened binding; strength is not graded here.

The chains behind the UniProt entries cited, without tags or fusion partners. Residues count along the entry.
UniProt P06241, residues 142-248: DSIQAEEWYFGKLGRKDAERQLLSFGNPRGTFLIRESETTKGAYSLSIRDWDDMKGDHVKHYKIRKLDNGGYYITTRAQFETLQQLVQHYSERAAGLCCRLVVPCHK

Columns and labels:
c-Src SH2 domain = c-Src SH2 domain (UniProt P12931); assay: fluorescence polarisation; competition mode: unlabelled phosphopeptide competes with the probe FITC-Ahx-GDG(pY)EEISPLLL for the purified SH2 domain; as in ref. 33; both purified
[1] = molecular target: Fyn SH2 domain (142-248) (human) (UniProt P06241); assay: as above

| Binder | binding (c-Src SH2 domain) | binding [1] |
| --- | --- | --- |
| PIFEGYALPHA (phosphotyrosine at the central Y (Y171)) | binds | – |
| PIFEGYGLPHA (phosphotyrosine at the central Y (Y171)) | binds | – |
| SLEKSYELLDG (phosphotyrosine at the central Y (Y240)) | binds | binds |
| SLEKSYELPDG (phosphotyrosine at the central Y (Y240)) | binds | binds |

Next, values leading:

| binding (c-Src SH2 domain) | binding [1] | Binder |
| --- | --- | --- |
| binds | binds | SDQRRYSLIDR (phosphotyrosine at the central Y (Y972)) |
| binds | binds | VEGIGYDFIPT (phosphotyrosine at the central Y (Y308)) |
| binds | binds | SDQRRYSLIDP (phosphotyrosine at the central Y (Y972)) |
| binds | binds | VEGISYDFIPT (phosphotyrosine at the central Y (Y308)) |
